Paper PMC4342408 (Structure(London, England:1993), 2014)
Results are given in words; binding and its absence hold for the method and conditions named.

Assays:
[1] = target: HYPE (103–445) L258D mutant (human) (UniProt Q9BVA6); assay: SEC; analytical gel filtration of purified HYPE constructs; both purified
[2] = target: HYPE (103–445) L258D mutant (human) (UniProt Q9BVA6); assay: SAXS; small angle X-ray scattering of soluble HYPE constructs in solution; methods in Supplemental Experimental Procedures; both purified

binding [1]: no binding
binding [2]: no binding
B1: HYPE (103–445) L258D mutant (domain or fragment, UniProt Q9BVA6 103-445)
chain: KLEARAALNQALEMKRQGKREKAQKLFMHALKMDPDFVDALTEFGIFSEEDKDIIQADYLYTRALTISPYHEKALVNRDRTLPLVEEIDQRYFSIIDSKVKKVMSIPKGNSALRRVMEETYYHHIYHTVAIEGNTLTLSEIRHILETRYAVPGKSDEEQNEVIGMHAAMKYINTTLVSRIGSVTISDVLEIHRRVLGYVDPVEAGRFRTTQVLVGHHIPPHPQDVEKQMQEFVQWLNSEEAMNLHPVEFAALAHYKLVYIHPFIDGNGRTSRLLMNLILMQAGYPPITIRKEQRSDYYHVLEAANEGDVRPFIRFIAKCTETTLDTLLFATTEYSVALPEAQP
